{"source": "PubChem BioAssay AID686943 (Drosophila RNAi Screening Center, 2013)", "purpose": "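Search across the genome for regulators of signalling from receptor tyrosine kinase to ERK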 (primary screen)", "cell system": "Drosophila S2R+ haemocyte-like cells expressing YFP-tagged ERK (Rolled)", "knock-down reagent": "long dsRNA against Drosophila genes", "challenge": "insulin stimulation versus unstimulated cells; dose and duration not given", "read-out": "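Antibody staining for doubly phosphorylated ERK divided by ERK-YFP signal, as plate z-scores, in insulin-treated and untreated cells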", "direction": "replicate 1, z-score of dpERK with insulin: higher = more active ERK per ERK-YFP after insulin", "note": "The screen tested about 23,000 reagents; this is an unselected part of those with a known target gene and a result. 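Extra replicates exist only for a retested subset of genes; insulin dose and duration not given; both raised and lowered dpERK matter.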 Names joined by + are all predicted targets of the reagent. Not all columns of the deposit are shown. Not stated in the record: the amount of reagent, the time to read-out."}
{"Target gene": "CG13367", "amplicon": "DRSC18485", "replicate 1, z-score of dpERK with insulin": 0.6}
{"Target gene": "CG13367", "amplicon": "DRSC18486", "replicate 1, z-score of dpERK with insulin": 0.07}
{"Target gene": "CG15578", "amplicon": "DRSC18066", "replicate 1, z-score of dpERK with insulin": -0.79}
{"Target gene": "CtsL2 (Cathepsin L2)", "amplicon": "DRSC06978", "replicate 1, z-score of dpERK with insulin": 0.61}
{"Target gene": "RluA-2 (RluA pseudouridine synthase 2)", "amplicon": "DRSC02939", "replicate 1, z-score of dpERK with insulin": 1.18}
{"Target gene": "snsl (snustorr snarlik)", "amplicon": "DRSC00543", "replicate 1, z-score of dpERK with insulin": 0.4}
{"Target gene": "Mst57Dc (Male-specific transcript 57Dc)", "amplicon": "DRSC16745", "replicate 1, z-score of dpERK with insulin": 0.55}

Next part; the last 2 above are carried over.
{"Target gene": "snsl (snustorr snarlik)", "amplicon": "DRSC00543", "replicate 1, z-score of dpERK with insulin": 0.4}
{"Target gene": "Mst57Dc (Male-specific transcript 57Dc)", "amplicon": "DRSC16745", "replicate 1, z-score of dpERK with insulin": 0.55}
{"Target gene": "CG31269", "amplicon": "DRSC15744", "replicate 1, z-score of dpERK with insulin": -0.26}
{"Target gene": "CG43795 + SkpF", "amplicon": "DRSC04120", "replicate 1, z-score of dpERK with insulin": 1.26}
{"Target gene": "fz3 (frizzled 3)", "amplicon": "DRSC18779", "replicate 1, z-score of dpERK with insulin": 0.6}
{"Target gene": "timeout", "amplicon": "DRSC12950", "replicate 1, z-score of dpERK with insulin": 0.32}
{"Target gene": "timeout", "amplicon": "DRSC17078", "replicate 1, z-score of dpERK with insulin": -2.41}
{"Target gene": "timeout", "amplicon": "DRSC17079", "replicate 1, z-score of dpERK with insulin": 0.28}
{"Target gene": "timeout", "amplicon": "DRSC17080", "replicate 1, z-score of dpERK with insulin": 0.37}
{"Target gene": "timeout", "amplicon": "DRSC17081", "replicate 1, z-score of dpERK with insulin": 0.4}
{"Target gene": "timeout", "amplicon": "DRSC21535", "replicate 1, z-score of dpERK with insulin": 0.9}
{"Target gene": "Cyp6a2 (Cytochrome P450 6a2)", "amplicon": "DRSC05014", "replicate 1, z-score of dpERK with insulin": -0.94}
{"Target gene": "Tsp68C (Tetraspanin 68C)", "amplicon": "DRSC09295", "replicate 1, z-score of dpERK with insulin": -0.77}
{"Target gene": "CG33758", "amplicon": "DRSC05158", "replicate 1, z-score of dpERK with insulin": 0.58}
{"Target gene": "Ac3 (Adenylate cyclase 3)", "amplicon": "DRSC03692", "replicate 1, z-score of dpERK with insulin": 0.09}
{"Target gene": "PH4alphaEFB (prolyl-4-hydroxylase-alpha EFB)", "amplicon": "DRSC14473", "replicate 1, z-score of dpERK with insulin": -1.04}
{"Target gene": "PH4alphaEFB (prolyl-4-hydroxylase-alpha EFB)", "amplicon": "DRSC14950", "replicate 1, z-score of dpERK with insulin": -0.27}
